Experimental findings from PMC10127389 are described below.

Chains of the proteins cited; added tags and fusions are not shown.
UniProt P38543: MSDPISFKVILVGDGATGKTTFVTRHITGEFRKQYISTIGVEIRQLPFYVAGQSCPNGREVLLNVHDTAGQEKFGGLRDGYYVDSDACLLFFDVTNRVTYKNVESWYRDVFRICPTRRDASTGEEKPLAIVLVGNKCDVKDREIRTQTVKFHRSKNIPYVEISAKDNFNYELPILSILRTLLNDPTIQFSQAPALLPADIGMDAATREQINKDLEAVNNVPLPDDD

Results are given in words; binding and its absence hold for the method and conditions named. Binding seen in cells or lysates may run through a third protein. Where a sequence is shown, tags or fusion partners need not be part of it.

The target of the assay is T1, human MLF2 (human myeloid leukemia factor 2), HA-tagged, expressed from pPhMLF2 in G. lamblia (human) (UniProt Q15773).
T1 sequence: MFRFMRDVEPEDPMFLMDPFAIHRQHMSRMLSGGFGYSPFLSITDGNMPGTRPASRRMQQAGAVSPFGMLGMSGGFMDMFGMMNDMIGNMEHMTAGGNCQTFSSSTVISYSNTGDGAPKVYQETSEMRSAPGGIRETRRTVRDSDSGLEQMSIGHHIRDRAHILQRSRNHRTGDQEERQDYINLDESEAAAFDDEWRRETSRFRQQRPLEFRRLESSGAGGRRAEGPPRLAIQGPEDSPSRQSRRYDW
In words: co-IP; lysates of pPhMLF2 stable transfectants of G. lamblia in growth medium; precipitated with anti-HA antibody conjugated to beads; Western blot with anti-HA, anti-MLF and anti-RAN; 5'Δ5N-Pac cell line as control. In general terms: In western blotting, separated proteins are transferred to a membrane and probed.

In the case of “Giardia lamblia RAN, endogenous (from UniProt P38543 1-226)”, the binding entry is given as “no binding”.
